In patent publication US20250011869A1, “TLR3 INHIBITORS FOR USE IN THE TREATMENT OF DISEASES ASSOCIATED WITH CARDIOVASCULAR CALCIFICATION” (priority 2021, published 2025):
At least one structure is not confirmed: it was looked up by name or label, or the drawing left a doubt.

Tested on: RUNX2
Assay: RUNX2 expression in VICs after Poly(I:C) treatment (immunoblot)
Format: cell-based, human
Conditions: VICs pre-treated; Poly(I:C) 20 μg/mL; LY294002 10 μM; IFNAR1 blocking antibody 4 μg/ml

## O=c1cc(N2CCOCC2)oc2c(-c3ccccc3)cccc12 [LY294002]
  RUNX2 upregulation upon Poly(I:C) treatment: prevented RUNX2 upregulation
